Legend:
[1] = general procedure: Boc solid-phase peptide synthesis; benzhydrylamine or chloromethylated polystyrene resin; symmetric anhydride or active ester coupling, or DCC, DIC or BOP; details: whole synthesis
[2] = Fmoc solid-phase peptide synthesis; benzhydrylamine or chloromethylated polystyrene resin; symmetric anhydride or active ester coupling, or DCC, DIC or BOP; details: whole synthesis, scale 0.25 mmol
[3] = scale of the general procedure 0.25 mmol
[4] = scale 0.27 mmol, one disulfide bridge, sequence written open

β-Asp(indolinyl)-Cys(4-Me-Bzl)-Tyr(2-Br-Z)-D-Trp-Lys(Z)-Val-Cys(4-Me- Bzl)-Thr(Bzl)
isolated mass ([1]; scale 0.25 mmol): 120 mg | isolated yield ([1]; scale 0.25 mmol): 43%

Ac-Sar-Ala-Tyr-Tyr-Aa-Lys-Val-Phe-Trp-NH2
isolated mass [1]: 85 mg | isolated yield [1, 3]: 28%

Aa-Cys(Acm)-Tyr(tBu)-D-Trp-Lys(Boc)-Val-Cys(Acm)-Trp
isolated mass [2]: 147 mg | isolated yield [2]: 46%

D-Phe-Cys-Tyr-D-Trp-Lys-Val-Cys-Thr-NH2
isolated mass [1, 4]: 54 mg | isolated yield [1, 4]: 19.4%

Pop-Tyr-Tyr-Aa-Lys-Val-Phe-Trp-NH2
isolated mass [1]: 105 mg | isolated yield [1, 3]: 35%
